Results as given in the supplement of paper PMC12067093, “Discovery and optimisation of a covalent ligand for TRIM25 and its application to targeted protein ubiquitination” (Chemical Science, 2025).
This is one part of the list.

Chains of the proteins cited; added tags and fusions are not shown. Lines headed by an entry give the natural chain unless they say otherwise; changes in a name come on top.
UniProt P49327, whole entry, looked up: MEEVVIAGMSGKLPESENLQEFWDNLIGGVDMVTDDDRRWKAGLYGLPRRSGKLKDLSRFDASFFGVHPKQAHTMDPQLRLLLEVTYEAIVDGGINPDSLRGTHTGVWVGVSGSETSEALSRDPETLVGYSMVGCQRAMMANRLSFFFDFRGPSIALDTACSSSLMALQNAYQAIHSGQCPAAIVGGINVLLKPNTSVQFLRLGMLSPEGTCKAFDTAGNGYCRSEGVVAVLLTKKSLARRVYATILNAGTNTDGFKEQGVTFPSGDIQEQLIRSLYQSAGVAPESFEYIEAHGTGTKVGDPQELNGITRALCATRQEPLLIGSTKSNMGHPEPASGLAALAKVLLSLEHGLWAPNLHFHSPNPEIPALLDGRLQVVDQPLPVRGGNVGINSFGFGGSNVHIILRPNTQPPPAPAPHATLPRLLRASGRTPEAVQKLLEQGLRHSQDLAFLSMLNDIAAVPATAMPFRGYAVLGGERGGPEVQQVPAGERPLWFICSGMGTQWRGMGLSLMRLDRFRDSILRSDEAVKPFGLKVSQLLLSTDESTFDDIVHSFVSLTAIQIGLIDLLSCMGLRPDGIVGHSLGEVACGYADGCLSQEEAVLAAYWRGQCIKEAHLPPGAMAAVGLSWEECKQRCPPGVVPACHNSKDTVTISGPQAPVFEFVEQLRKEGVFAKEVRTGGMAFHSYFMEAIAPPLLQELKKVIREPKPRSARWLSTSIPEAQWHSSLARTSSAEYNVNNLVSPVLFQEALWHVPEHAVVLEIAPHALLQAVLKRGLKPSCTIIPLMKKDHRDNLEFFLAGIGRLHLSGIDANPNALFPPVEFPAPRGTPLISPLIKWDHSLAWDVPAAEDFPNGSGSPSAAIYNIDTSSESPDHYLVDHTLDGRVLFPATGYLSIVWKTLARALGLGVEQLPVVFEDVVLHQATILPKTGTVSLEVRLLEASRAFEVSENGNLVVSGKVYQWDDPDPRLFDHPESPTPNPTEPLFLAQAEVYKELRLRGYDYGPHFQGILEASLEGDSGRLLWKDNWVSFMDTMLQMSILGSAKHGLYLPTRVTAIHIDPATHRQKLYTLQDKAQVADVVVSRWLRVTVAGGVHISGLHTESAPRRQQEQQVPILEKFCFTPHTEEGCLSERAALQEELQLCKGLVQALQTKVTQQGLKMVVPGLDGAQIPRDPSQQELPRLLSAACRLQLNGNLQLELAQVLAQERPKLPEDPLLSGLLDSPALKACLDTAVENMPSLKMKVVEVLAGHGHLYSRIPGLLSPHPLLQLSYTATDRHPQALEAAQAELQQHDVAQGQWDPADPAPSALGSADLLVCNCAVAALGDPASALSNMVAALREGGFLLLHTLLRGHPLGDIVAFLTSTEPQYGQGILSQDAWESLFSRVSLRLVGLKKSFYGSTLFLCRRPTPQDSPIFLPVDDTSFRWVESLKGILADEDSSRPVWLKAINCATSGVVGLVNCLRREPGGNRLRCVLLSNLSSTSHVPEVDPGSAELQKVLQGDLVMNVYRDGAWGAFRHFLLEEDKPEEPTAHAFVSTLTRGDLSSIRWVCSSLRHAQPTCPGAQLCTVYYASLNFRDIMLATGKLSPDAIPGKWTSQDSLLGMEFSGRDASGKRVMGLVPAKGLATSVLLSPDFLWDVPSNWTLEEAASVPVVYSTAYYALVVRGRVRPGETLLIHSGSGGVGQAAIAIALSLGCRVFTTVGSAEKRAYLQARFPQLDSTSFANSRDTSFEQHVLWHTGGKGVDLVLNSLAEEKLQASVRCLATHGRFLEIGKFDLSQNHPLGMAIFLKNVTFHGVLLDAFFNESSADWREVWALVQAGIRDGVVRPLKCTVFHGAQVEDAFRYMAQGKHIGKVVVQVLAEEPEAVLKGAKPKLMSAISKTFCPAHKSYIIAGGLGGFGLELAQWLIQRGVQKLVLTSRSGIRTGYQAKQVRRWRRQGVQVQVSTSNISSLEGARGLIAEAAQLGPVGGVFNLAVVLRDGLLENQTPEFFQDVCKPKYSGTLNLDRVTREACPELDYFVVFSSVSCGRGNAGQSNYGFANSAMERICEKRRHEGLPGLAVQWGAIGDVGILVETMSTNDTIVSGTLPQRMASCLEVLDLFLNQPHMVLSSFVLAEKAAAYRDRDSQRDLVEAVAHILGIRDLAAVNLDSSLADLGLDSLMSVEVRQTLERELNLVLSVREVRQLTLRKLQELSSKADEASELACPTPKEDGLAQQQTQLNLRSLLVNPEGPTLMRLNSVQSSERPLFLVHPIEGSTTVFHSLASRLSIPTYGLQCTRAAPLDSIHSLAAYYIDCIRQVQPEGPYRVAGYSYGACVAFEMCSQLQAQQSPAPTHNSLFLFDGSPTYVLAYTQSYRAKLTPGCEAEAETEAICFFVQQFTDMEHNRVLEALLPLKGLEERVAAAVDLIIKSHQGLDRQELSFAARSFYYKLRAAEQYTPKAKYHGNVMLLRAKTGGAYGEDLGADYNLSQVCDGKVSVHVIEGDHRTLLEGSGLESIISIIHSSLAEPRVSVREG
UniProt Q86UX7, whole entry, looked up: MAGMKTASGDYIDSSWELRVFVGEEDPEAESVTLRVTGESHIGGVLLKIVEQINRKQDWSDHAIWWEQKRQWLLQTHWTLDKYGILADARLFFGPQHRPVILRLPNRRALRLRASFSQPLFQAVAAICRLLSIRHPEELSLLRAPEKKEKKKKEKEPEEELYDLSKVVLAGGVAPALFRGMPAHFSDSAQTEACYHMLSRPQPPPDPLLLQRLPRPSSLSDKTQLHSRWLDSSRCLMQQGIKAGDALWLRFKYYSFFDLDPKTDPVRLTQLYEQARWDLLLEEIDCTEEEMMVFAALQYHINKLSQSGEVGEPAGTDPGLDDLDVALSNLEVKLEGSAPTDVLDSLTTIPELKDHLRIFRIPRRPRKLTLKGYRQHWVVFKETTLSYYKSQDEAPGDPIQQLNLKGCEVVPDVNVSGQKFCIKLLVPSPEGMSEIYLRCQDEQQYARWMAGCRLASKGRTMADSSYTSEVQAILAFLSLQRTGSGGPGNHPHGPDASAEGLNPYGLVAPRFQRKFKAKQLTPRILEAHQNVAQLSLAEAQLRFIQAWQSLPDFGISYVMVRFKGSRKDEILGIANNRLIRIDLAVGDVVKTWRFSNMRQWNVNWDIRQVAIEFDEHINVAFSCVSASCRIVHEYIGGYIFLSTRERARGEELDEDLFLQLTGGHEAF
UniProt Q96K12: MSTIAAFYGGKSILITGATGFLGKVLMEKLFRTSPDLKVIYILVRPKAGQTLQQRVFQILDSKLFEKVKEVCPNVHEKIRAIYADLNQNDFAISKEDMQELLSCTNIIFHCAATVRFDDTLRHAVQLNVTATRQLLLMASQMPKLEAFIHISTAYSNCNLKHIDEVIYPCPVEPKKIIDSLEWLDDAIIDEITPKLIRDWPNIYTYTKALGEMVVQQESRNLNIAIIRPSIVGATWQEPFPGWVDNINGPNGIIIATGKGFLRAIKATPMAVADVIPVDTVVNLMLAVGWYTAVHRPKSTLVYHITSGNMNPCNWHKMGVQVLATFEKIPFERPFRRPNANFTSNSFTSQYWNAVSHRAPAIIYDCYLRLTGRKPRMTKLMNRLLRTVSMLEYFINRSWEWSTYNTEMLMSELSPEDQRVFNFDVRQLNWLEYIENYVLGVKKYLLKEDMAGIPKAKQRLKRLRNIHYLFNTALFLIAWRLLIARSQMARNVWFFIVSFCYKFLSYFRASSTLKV
UniProt Q17RN3: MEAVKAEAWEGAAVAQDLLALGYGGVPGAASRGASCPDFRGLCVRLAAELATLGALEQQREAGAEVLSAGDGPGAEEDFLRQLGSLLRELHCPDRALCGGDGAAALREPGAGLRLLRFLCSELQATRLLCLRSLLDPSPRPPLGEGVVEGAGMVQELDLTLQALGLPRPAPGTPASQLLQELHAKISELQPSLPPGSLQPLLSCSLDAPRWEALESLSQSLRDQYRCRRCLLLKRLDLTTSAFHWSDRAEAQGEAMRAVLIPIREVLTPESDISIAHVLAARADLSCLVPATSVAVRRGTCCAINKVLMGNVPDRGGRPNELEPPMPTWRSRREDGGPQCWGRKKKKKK
UniProt P37268: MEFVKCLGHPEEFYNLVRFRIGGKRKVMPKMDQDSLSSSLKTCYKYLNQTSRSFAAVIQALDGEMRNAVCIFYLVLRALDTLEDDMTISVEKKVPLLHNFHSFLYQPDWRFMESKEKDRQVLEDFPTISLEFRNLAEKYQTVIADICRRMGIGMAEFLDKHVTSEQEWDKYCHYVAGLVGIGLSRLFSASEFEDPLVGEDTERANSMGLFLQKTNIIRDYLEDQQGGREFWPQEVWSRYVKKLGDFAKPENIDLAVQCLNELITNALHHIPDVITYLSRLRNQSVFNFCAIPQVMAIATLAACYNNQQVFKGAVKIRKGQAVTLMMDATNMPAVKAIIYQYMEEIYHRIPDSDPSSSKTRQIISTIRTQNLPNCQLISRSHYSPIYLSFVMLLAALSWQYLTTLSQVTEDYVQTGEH
UniProt Q9NYY8: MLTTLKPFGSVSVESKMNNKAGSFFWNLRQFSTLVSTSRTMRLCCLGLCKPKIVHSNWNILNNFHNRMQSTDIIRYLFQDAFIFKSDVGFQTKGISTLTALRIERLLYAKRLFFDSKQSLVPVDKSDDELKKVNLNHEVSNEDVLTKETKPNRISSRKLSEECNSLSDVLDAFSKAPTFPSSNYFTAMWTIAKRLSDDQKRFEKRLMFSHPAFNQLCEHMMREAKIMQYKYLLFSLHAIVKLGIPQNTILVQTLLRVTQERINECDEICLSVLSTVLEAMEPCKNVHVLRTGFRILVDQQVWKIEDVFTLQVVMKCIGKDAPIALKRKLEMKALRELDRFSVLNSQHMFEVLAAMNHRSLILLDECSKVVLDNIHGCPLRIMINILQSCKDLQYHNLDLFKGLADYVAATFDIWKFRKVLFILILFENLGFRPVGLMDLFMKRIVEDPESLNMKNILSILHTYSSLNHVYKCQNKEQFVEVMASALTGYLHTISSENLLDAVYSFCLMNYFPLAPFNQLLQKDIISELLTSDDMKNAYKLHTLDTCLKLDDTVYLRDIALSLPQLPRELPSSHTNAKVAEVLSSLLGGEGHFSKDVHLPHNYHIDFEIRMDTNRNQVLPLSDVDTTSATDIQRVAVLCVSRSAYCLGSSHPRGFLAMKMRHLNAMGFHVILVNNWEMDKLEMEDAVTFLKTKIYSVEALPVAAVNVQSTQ
UniProt Q13642: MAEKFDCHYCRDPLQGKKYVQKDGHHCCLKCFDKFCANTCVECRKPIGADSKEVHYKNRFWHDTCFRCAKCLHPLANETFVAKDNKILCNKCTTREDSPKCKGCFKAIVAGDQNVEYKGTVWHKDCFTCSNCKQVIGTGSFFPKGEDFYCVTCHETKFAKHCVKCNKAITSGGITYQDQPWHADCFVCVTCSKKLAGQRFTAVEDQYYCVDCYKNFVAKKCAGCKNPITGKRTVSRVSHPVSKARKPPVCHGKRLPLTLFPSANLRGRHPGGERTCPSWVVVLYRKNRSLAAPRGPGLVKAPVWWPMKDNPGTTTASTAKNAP
UniProt Q9H0X4: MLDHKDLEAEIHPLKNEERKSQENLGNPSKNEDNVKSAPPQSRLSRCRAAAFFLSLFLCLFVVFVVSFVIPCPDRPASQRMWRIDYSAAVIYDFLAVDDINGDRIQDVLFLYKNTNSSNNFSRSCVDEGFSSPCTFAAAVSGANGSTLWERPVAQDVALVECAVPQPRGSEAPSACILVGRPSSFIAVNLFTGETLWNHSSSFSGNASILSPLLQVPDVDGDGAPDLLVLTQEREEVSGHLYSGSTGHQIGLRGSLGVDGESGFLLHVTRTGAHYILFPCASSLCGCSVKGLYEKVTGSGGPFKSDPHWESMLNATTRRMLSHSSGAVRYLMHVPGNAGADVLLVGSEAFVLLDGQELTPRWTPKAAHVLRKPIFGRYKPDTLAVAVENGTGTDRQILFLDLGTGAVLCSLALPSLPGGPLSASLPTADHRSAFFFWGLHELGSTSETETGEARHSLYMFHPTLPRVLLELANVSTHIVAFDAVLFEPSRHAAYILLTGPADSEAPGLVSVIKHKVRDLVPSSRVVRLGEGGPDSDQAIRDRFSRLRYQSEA
UniProt P09467: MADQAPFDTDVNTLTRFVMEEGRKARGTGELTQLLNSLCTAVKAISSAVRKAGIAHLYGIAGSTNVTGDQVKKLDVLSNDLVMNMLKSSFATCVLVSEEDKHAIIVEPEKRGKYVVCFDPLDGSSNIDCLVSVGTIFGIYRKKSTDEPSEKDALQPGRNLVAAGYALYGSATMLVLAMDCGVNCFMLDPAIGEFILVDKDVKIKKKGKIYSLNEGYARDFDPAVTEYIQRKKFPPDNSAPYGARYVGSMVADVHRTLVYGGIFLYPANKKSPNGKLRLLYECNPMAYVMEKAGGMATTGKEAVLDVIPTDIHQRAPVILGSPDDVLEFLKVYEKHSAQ

Compound: Cc1cc(ccc1-c1ccccc1)C(=O)N1CCCN(CC1)C(=O)CCl [compound 10]
Assay: probe-labelled cysteine peptide fold change vs DMSO (competition) (log2 fold change); higher = less target engagement (more negative = stronger competition)
Conditions: THP-1, incubation time: 4 h
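Also: competitive profiling in live THP-1 cells: cysteine peptides tagged with an iodoacetamide desthiobiotin (IA-DTB) probe, intensity after compound treatment relative to DMSO-treated cells.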

Row | Target | probe-labelled cysteine peptide fold change (10 µM) | probe-labelled cysteine peptide fold change (50 µM)
1 | FBN2_P35556_1162_NCMDIDECERNPLLCR (UniProt P35556) | 0.209 | 0.235
2 | FASN_P49327_1448_AINCATSGVVGLVNCLR (UniProt P49327) | -0.0469 | -0.172
3 | FERMT3_Q86UX7_439_CQDEQQYAR (UniProt Q86UX7) | 0.208 | 0.187
4 | FAM136A_Q96C01_57_CHVPLAQAQALVTSELEK (UniProt Q96C01) | -0.144 | -0.276
5 | FBXO30_Q8TB52_725_EEAIPLPCMCVTR (UniProt Q8TB52) | 0.235 | -0.68
6 | FBN2_P35556_682_CDCPPGLAVGMDGR (UniProt P35556) | 0.252 | -0.0837
7 | FASN_P49327_779_GLKPSCTIIPLMK (UniProt P49327) | -0.0502 | -0.485
8 | FAR2_Q96K12_170_HIDEVIYPCPVEPK (UniProt Q96K12) | -0.0319 | 0.181
9 | FAR2_Q96K12_104+111_EDMQELLSCTNIIFHCAATVR (UniProt Q96K12) | 0.00346 | 0.391
10 | FBXO4_Q9UKT5_330_HEWQDEFSHIMAMTDPAFGSSGRPLLVLSCISQGDVK (UniProt Q9UKT5) | 0.0347 | -0.08
11 | FAM98C_Q17RN3_92_ELHCPDR (UniProt Q17RN3) | -0.237 | -0.107
12 | FAM98C_Q17RN3_340_REDGGPQCWGR (UniProt Q17RN3) | -0.342 | -1.05
13 | FASN_P49327_1558+1564_HAQPTCPGAQLCTVYYASLNFR (UniProt P49327) | -0.305 | -0.774
14 | FAM208A_Q9UK61_1245_FYIHEEEESVLCK (UniProt Q9UK61) | -0.0476 | -0.00682
15 | FAM160B1_Q5W0V3_460_LIEHCDHISDEISIMTLR (UniProt Q5W0V3) | 0.0173 | -0.216
16 | FDFT1_P37268_172_YCHYVAGLVGIGLSR (UniProt P37268) | 0.106 | 0.183
17 | FASN_P49327_1828_CTVFHGAQVEDAFR (UniProt P49327) | 0.0268 | -0.0208

Retrieved one by one from the list above:
Row | Target | probe-labelled cysteine peptide fold change (10 µM) | probe-labelled cysteine peptide fold change (50 µM)
16 | FDFT1_P37268_172_YCHYVAGLVGIGLSR (UniProt P37268) | 0.106 | 0.183
9 | FAR2_Q96K12_104+111_EDMQELLSCTNIIFHCAATVR (UniProt Q96K12) | 0.00346 | 0.391

The list continues.

Row | Target | probe-labelled cysteine peptide fold change (10 µM) | probe-labelled cysteine peptide fold change (50 µM)
18 | FAM136A_Q96C01_82_CTMHCNDK (UniProt Q96C01) | 0.123 | 0.101
19 | FASTKD2_Q9NYY8_546_LHTLDTCLK (UniProt Q9NYY8) | -0.0542 | 0.141
20 | FBRS_Q9HAH7_87_WCAMHVR (UniProt Q9HAH7) | -0.406 | 0.215
21 | FDFT1_P37268_6_CLGHPEEFYNLVR (UniProt P37268) | -0.238 | -0.749
22 | FHL1_Q13642-1_273+276_FVFHQEQVYCPDCAK (UniProt Q13642) | -0.106 | -0.119
23 | FASTKD2_Q9NYY8_645_SAYCLGSSHPR (UniProt Q9NYY8) | 0.0566 | -0.0395
24 | FASN_P49327_2010_EACPELDYFVVFSSVSCGR (UniProt P49327) | -0.109 | 0.372
25 | FBXL12_Q9NXK8_310_GLPHCMVIVR (UniProt Q9NXK8) | -0.02 | -0.314
26 | FCHSD2_O94868_33_HQAECDLLEDMR (UniProt O94868) | -0.181 | -0.173
27 | FAM234A_Q9H0X4_285_TGAHYILFPCASSLCGCSVK (UniProt Q9H0X4) | 0.0209 | 0.184
28 | FBXW2_Q9UKT8_189_LWDVSTGQCVYGIQTHTCAAVK (UniProt Q9UKT8) | 0.065 | 0.0932
29 | FASN_P49327_634+642_CPPGVVPACHNSK (UniProt P49327) | -0.0913 | -0.461
30 | FASN_P49327_1118+1127_FCFTPHTEEGCLSER (UniProt P49327) | -0.166 | -0.101
31 | FBXL20_Q96IG2_179_ALSEGCPLLEQLNISWCDQVTK (UniProt Q96IG2) | -0.152 | -0.432
32 | FBP1_P09467_282_LLYECNPMAYVMEK (UniProt P09467) | -0.0204 | -0.0851
33 | FGD3_Q5JSP0_184_LHLLDQVFCTR (UniProt Q5JSP0) | 0.0176 | 0.345
34 | FERMT3_Q86UX7_128_ASFSQPLFQAVAAICR (UniProt Q86UX7) | -0.0443 | 0.023
